Test results reported in PubChem BioAssay AID652054 (National Center for Advancing Translational Sciences (NCATS), 2013).
Hit rate of the full screen: of about 360,000 compounds, about 9,100 (2.5%) were called active. Inconclusive means that the source gave no clear call. Such entries were picked first, then a sample of the others. No stated cut-off is given here; in the data, active means max response below about -50%; inconclusive means no clear call, values can overlap the other calls; inactive means above that. Some compounds were tested as several samples or in several runs, with calls that do not always agree.

By UniProt entry, the sequences of proteins in these tests, tags left out.
UniProt P35462, whole entry, looked up: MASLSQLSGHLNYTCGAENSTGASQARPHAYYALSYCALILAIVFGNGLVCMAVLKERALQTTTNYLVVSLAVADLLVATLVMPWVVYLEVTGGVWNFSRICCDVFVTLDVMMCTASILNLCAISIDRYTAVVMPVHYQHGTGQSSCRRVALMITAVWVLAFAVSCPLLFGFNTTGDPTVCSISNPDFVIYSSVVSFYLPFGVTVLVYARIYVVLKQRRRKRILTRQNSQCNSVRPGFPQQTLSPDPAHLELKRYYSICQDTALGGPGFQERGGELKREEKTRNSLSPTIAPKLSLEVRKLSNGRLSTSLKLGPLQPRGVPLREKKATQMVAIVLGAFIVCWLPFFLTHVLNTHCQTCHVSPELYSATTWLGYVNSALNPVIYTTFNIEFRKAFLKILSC

Each compound was assayed against D(3) dopamine receptor (Homo sapiens) (UniProt P35462) (assay: qHTS of D3 Dopamine Receptor Antagonist: qHTS). Conditions: D3R cells, DiscoveRx beta-arrestin luminescence, antagonist mode; active compounds read low.
In short: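 Cells expressing the human receptor were seeded at 1500 cells/well, incubated overnight at 37 degrees C in 5% CO2, then exposed to library compounds with dopamine controls for 90 minutes at 37 degrees C before luminescent detection.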
On the % scale 0 is the no-effect control and ±100 the full control effect.

Compound	max response, negative = inhibition
COC(=O)CN(c1ccccn1)S(=O)(=O)c1ccccc1	inconclusive: -35.2%
CC1(C)C2CCC(CN=C(N)CSS(=O)(=O)O)C1C2 (stereo not given)	active: -99.5%
CCN(CC)C(=O)C1CCN(Cc2ccc(Br)cc2)CC1	inconclusive: -43.8%
COc1nc(NC(C)C)nc(N(C#N)CN2C(=O)c3ccccc3S2(=O)=O)n1	active: -57.7%
Cc1ccc2c(c1)N(CCC(=O)NCc1ccccn1)C(=O)CO2	active: -63.6%
Cc1cccc(C(O)c2ncc(-c3ccc(F)cc3)[nH]2)c1C (stereo not given)	inconclusive: -46%
O=C1C=C(c2ccc3ccccc3c2)C[C@@H](c2ccc(F)cc2)C1	inconclusive: -31.8%
Cc1ccccc1OCC(O)Cn1c(SC(C)C)nc2c1c(=O)[nH]c(=O)n2C (stereo not given)	inactive: 13.5%
COc1cc(CN2CCN(Cc3ccc(C)cc3)C(CCO)C2)ccc1O (stereo not given)	inconclusive: -45.4%
N/C(=N\OC(=O)CN1C(=O)c2ccccc2C1=O)c1ccc(Br)cc1	inactive: 18.5%
COc1cc2c(cc1OC)CN(CC(=O)NC(=O)NCc1ccccc1)CC2	inconclusive: -39.3%
Cc1csc2cc(-c3cccc([N+](=O)[O-])c3)c(-c3cccc([N+](=O)[O-])c3)c[n+]12	active: -60.6%
Cc1c(CCO)c(=O)n(-c2ccccc2)n1S(=O)(=O)c1ccc(Cl)cc1	inconclusive: -35.7%
O=[N+]([O-])c1ccccc1S(=O)(=O)Nc1cccc(S(=O)(=O)N2CCCC2)c1	inactive: -0.128%
Cc1nnc(SCC(=O)N2CCN(S(=O)(=O)c3ccccc3)CC2)s1	inactive: -3.84%
Nc1nonc1-c1noc(-c2ccc(Br)o2)n1	inconclusive: -32.6%
COc1cccc(/C=C/C(=O)c2ccc(NS(=O)(=O)c3ccc(C)cc3)cc2)c1	active: -53.9%
COCC(=O)N1C[C@H]2CON(C)[C@H]2C[C@H]1c1cccc(-c2ccccc2)c1	inconclusive: -33.4%
Cc1ccc(S(=O)(=O)N2c3ccccc3OCC2C(C)(C)C)cc1 (stereo not given)	inactive: -14.5%
Cc1cccc(NC(=O)c2ccccc2C(=O)Nc2cccc(C)c2)c1	inconclusive: -30.8%
COC(=O)c1cc([N+](=O)[O-])ccc1N1CCN(Cc2ccccc2)CC1	active: -51.9%
CC(=O)N1CCN(c2nnc(-c3ccc(C)cc3)c3ccccc23)CC1	inactive: 0.0723%
O=C(c1ccccc1)c1ccc(OCCOCCN2CCN(Cc3ccccc3)CC2)cc1	inconclusive: -48.2%

Compound	max response, negative = inhibition
O=C(N/N=C/c1c[nH]c2ccccc12)c1ccc(Cl)cc1	inconclusive: -32.2%
Cc1[nH]c2ccccc2c1CCNS(=O)(=O)c1ccc(S(N)(=O)=O)cc1	inconclusive: -47.8%
C=C[C@@H]1CN2CCC1C[C@@H]2[C@@H](O)c1ccnc2ccc(OC)cc12 (stereo not given in full)	active: -61.6%
O=[N+]([O-])c1cccc2nc3ccccc3c(NCCCn3ccnc3[N+](=O)[O-])c12	inconclusive: -39.4%
C=CCn1c(C(C)NC(=O)C(C)(C)C)nc2ccccc21 (stereo not given)	active: -52%
O=c1cc(-c2ccc(O)cc2)oc2ccccc12	inactive: 4.14%
CN(CC(=O)Nc1ccc(Cl)c(S(=O)(=O)N(C)C)c1)Cc1ccccc1	inconclusive: -31%
NC(=O)c1ccsc1NC(=O)CSc1nnc(NC2CC2)s1	inconclusive: -32.8%
COc1ccc(C(=O)O/N=C(\N)c2ccccc2)c(OC)c1	inactive: 5.53%
Cc1cccc(N(C(=O)Cn2nnc(-c3ccccc3F)n2)C(C(=O)NC(C)(C)C)c2ccncc2)c1 (stereo not given)	inactive: 0.505%
O=[N+]([O-])c1ccc(S(=O)(=O)CC(CN2CCOCC2)N2CCOCC2)cc1 (stereo not given)	inconclusive: -31.3%
O=C(CCCO)N/N=C/c1cc(Br)ccc1O	inconclusive: -45.7%
COc1ccc(OC)c(S(=O)(=O)N(C)CC(=O)Nc2ccc3c(c2)OCO3)c1	inconclusive: -43.1%
CC1CN(Cc2c(O)ccc3c2oc(=O)c2ccccc23)CC(C)O1 (stereo not given)	active: -66.2%
COc1ccc2nc3cc(Cl)ccc3c(Nc3cc(C(C)C)c(O)cc3C)c2c1	inconclusive: -34.8%
Cc1cc(Br)ccc1-n1[nH]c(C)c(C=Nc2cccc3nsnc23)c1=O	inconclusive: -46%
Nc1n[nH]c(-c2ccc(F)cc2)n1	inconclusive: -38.1%
CC(NS(=O)(=O)c1ccccc1)C(=O)Nc1nccs1 (stereo not given)	inconclusive: -36.5%
Cn1c(CN2CCN(S(C)(=O)=O)CC2)nc2cc([N+](=O)[O-])ccc21	inconclusive: -33.2%
O=C1CC2(CCN(S(=O)(=O)c3ccccc3)CC2)Oc2ccccc21	inconclusive: -42.9%
CC(=O)c1ccc(NC(=S)NCCc2cccc(Cl)c2)cc1	inactive: -27%
Cc1ccc(S(=O)(=O)N2CCc3ccccc3CC2)cc1	inactive: -21.2%
CCCCN(CC)S(=O)(=O)c1ccc(C(=O)Nc2nnc(-c3cccs3)o2)cc1	active: -57%

Taken from above.
Value of `CN(CC(=O)Nc1ccc(Cl)c(S(=O)(=O)N(C)C)c1)Cc1ccccc1` under max response, negative = inhibition: inconclusive: -31%
Value of `O=C(CCCO)N/N=C/c1cc(Br)ccc1O` under max response, negative = inhibition: inconclusive: -45.7%
Value of `CC1CN(Cc2c(O)ccc3c2oc(=O)c2ccccc23)CC(C)O1` (stereo not given) under max response, negative = inhibition: active: -66.2%
Value of `NC(=O)c1ccsc1NC(=O)CSc1nnc(NC2CC2)s1` under max response, negative = inhibition: inconclusive: -32.8%

Going on with the list.

Compound	max response, negative = inhibition
CCCC(c1nnnn1Cc1ccco1)N1CCN(C2CCCC2)CC1 (stereo not given)	inconclusive: -48.3%
Cc1ccc2nc(-c3ccc(-c4cccc(Cl)c4)cc3)c(NCc3ccccc3)n2c1	inactive: 20.7%
Nc1cc([N+](=O)[O-])ccc1Nc1ccc(O)cc1	active: -54.6%
Cc1ccc(CC2SC(N=C(N)N)=NC2=O)cc1 (stereo not given)	inconclusive: -40.2%
O=S(=O)(c1ccccc1)N1CCN(Cc2nnc(-c3ccccc3)o2)CC1	inactive: 20.5%
CCOc1ccc(-c2nn3c(-c4ccc(F)cc4)nnc3s2)cc1	active: -64.4%
Cc1ccc(C)n1-c1ccc(C(=O)NCC2CCCO2)cc1 (stereo not given)	inactive: 4.78%
O=C(C1CC1)N1CCN(c2ccnc3cc(Cl)ccc23)CC1	active: -67.9%
COc1ccc([N+](=O)[O-])cc1NC(=O)c1ccccc1SC	inactive: -8.76%
CCOC(=O)c1ccccc1-c1csc(NS(=O)(=O)c2ccc(Cl)cc2)n1	inconclusive: -48.2%
CC(=O)Nc1nnc(CSCc2ccccc2F)s1	inconclusive: -35.3%
CC(C)(C)c1ccc(C(=O)N/N=C/c2ccccn2)cc1	inconclusive: -33.4%
COc1ccccc1CCC(=O)Nc1ccc2c(c1)c(=O)n(C)n2C	inactive: 4.79%
COc1cc2c(cc1NC(=O)CSc1ccccc1)oc1ccccc12	inactive: 10.3%
O=C(Oc1ccccc1)c1ccc2nsnc2c1	inconclusive: -34.1%
Cc1cc(N)n(-c2ccc3ccccc3c2)n1	inconclusive: -39.9%
NS(=O)(=O)c1cccc(NC(=O)CCCNC(=O)c2ccc(Cl)cc2)c1	inactive: -23.9%
CC(C)NC(=O)CN1CCN(c2ncccn2)CC1	active: -54.3%
CC(C)(C)OC(=O)N1CCC[C@@H]1C(=O)NCc1ccccc1Cl	inactive: 13.6%
Cc1ccc(N2CC(O)(c3cccs3)[N+]3=C2CCCC3)cc1 (stereo not given)	inconclusive: -49.3%
CCN(CC)c1cc2c(c3c1ccn3C)C1CCC2C1 (stereo not given)	active: -61.3%
Cc1cccc(Nc2nc(N)c([N+](=O)[O-])c(N3CCN(C)CC3)n2)c1	active: -63.6%
CC(=O)Nc1ccc(NC(=O)C(C)OC(=O)C2CCCC2)cc1 (stereo not given)	inconclusive: -32.9%

Compound	max response, negative = inhibition
COc1ccc(OCC(=O)NNC(=O)c2cccc(O)c2)cc1	inactive: 14.9%
CC(C)c1ccc2c(c1)C(N1CCN(C)CC1)Cc1cccnc1S2 (stereo not given)	active: -104%
Cc1cc(/C=C2\SC(=S)NC2=O)c(C)n1-c1ccccc1	inconclusive: -34.8%
CC(=O)Nc1n[nH]c(=S)s1	inconclusive: -33.3%
CCCN1CCN(CCCNC(=O)CN2C(=O)c3cccnc3Oc3ccc(Cl)cc32)CC1	inconclusive: -48.6%
COc1cc(CN2CCc3c([nH]c4ccccc34)C2)cc(OC)c1	active: -67.9%
Cc1ccc2nc(/C(C#N)=C\c3cc(O)ccc3[N+](=O)[O-])[nH]c2c1	inactive: -7.72%
CC1=C(C(=O)N2CCOCC2)CC(CC(=O)NCc2ccco2)C(=O)N1Cc1ccc(C(C)(C)C)cc1 (stereo not given)	inactive: -6.59%
CC(OC(=O)c1ccco1)C(=O)Nc1nc(-c2ccccc2)cs1 (stereo not given)	inactive: -13.2%
O=C(C1CC(=O)N(C2CCCC2)C1)N1CCN(c2cccc(Cl)c2)CC1 (stereo not given)	inactive: -18.1%
O=C(Cn1nnc(-c2ccc(S(=O)(=O)N3CCCC3)cc2)n1)NCC1CCCO1 (stereo not given)	inconclusive: -31.2%
CCN1C(=O)C(CC(=O)NCCc2ccccc2)N(NC(=O)c2cccnc2)C1=S (stereo not given)	inactive: -4.59%
CCOc1ccc(S(=O)(=O)N(C(=O)c2ccco2)c2cc3sc(=O)oc3c3ccccc23)cc1	inactive: -6.77%
COc1ccc(C(C)NC(=O)c2ccc(Cl)cc2)cc1OC (stereo not given)	inconclusive: -32.8%
O=C1C=C(c2ccccc2)C(=O)N1Nc1ccccc1	inconclusive: -37.5%
O=C(Nc1ccccc1C(=O)NCCCN1CCOCC1)c1ccc(Cl)cc1	active: -54%
O=C(CCn1c(=O)oc2ccc(Cl)cc21)N1CCN(c2ccccc2)CC1	inconclusive: -32.2%
Cc1c(Cl)c([N+](=O)[O-])nn1CCCC(=O)Nc1cc(Oc2ccccc2)cc([N+](=O)[O-])c1	inconclusive: -38.3%
Cc1cn(S(=O)(=O)c2ccccc2[N+](=O)[O-])cn1	inconclusive: -34%
CCC(C)(C)N1CC(=O)N(Cc2ccccc2)C(c2ccc(OC)cc2)C1=O (stereo not given)	active: -51.8%
O=S(=O)(c1ccc(SCc2ccc(Br)cc2)nc1)N1CCOCC1	inconclusive: -35.1%
